# Data published in publication PMC5830536.
# Chains of the proteins cited; added tags and fusions are not shown.
# UniProt Q9Y297: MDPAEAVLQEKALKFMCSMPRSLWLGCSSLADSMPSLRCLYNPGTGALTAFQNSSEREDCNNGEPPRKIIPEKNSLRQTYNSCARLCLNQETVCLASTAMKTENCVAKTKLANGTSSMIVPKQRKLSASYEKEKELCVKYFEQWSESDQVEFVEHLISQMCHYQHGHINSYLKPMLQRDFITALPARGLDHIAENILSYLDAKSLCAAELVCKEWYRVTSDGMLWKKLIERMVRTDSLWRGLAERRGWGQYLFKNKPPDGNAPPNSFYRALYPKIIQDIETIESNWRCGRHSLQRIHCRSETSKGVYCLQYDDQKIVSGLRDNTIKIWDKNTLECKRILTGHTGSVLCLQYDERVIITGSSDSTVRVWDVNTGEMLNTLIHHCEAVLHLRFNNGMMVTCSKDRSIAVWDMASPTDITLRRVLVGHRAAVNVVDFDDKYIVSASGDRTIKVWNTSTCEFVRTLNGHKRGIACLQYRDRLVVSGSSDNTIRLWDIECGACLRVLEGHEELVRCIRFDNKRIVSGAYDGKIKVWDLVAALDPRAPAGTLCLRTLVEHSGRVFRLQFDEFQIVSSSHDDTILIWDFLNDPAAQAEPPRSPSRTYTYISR
# Results are given in words; binding and its absence hold for the method and conditions named. Binding seen in cells or lysates may run through a third protein. Some entries that bind do so weakly or less than the wild type. For part of these data: Tags and fused reporters may be left off the sequences shown.
# Assays:
# myc-βTrCP1 (FBXW1A) [1] = target: myc-βTrCP1 (FBXW1A) (UniProt Q9Y297); test: co-IP; lysates of HEK 293T cells co-expressing FLAG-STIL versions and myc-βTrCP for 36 h; IP with 9E10 anti-myc antibodies cross-linked to protein A beads, 2 h at 4°C; washes 50 mM Tris-HCl pH 7.4, 150-300 mM NaCl, 0.5-1% IgePal; western blot for FLAG and myc
# myc-βTrCP1 (FBXW1A) [2] = target: myc-βTrCP1 (FBXW1A) (UniProt Q9Y297); test: co-IP; S395D mutant; no figure is cited and no method is told, so the method is taken from the co-IP described in the same sentence
Binder,binding (myc-βTrCP1 (FBXW1A) [1]),binding (myc-βTrCP1 (FBXW1A) [2])
"FLAG-STIL WT (full-length human STIL, residues 1-1287) (protein, UniProt Q15468 1-1287) MEPIYPFARPQMNTRFPSSRMVPFHFPPSKCALWNPTPTGDFIYLHLSYYRNPKLVVTEKTIRLAYRHAKQNKKNSSCFLLGSLTADEDEEGVTLTVDRFDPGREVPECLEITPTASLPGDFLIPCKVHTQELCSREMIVHSVDDFSSALKALQCHICSKDSLDCGKLLSLRVHITSRESLDSVEFDLHWAAVTLANNFKCTPVKPIPIIPTALARNLSSNLNISQVQGTYKYGYLTMDETRKLLLLLESDPKVYSLPLVGIWLSGITHIYSPQVWACCLRYIFNSSVQERVFSESGNFIIVLYSMTHKEPEFYECFPCDGKIPDFRFQLLTSKETLHLFKNVEPPDKNPIRCELSAESQNAETEFFSKASKNFSIKRSSQKLSSGKMPIHDHDSGVEDEDFSPRPIPSPHPVSQKISKIQPSVPELSLVLDGNFIESNPLPTPLEMVNNENPPLINHLEHLKPLQPQLYDEKHSPEVEAGEPSLRGIPNQLNQDKPALLRHCKVRQPPAYKKGNPHTRNSIKPSSHNGPSHDIFEKLQTVSAGNVQNEEYPIRPSTLNSRQSSLAPQSQPHDFVFSPHNSGRPMELQIPTPPLPSYCSTNVCRCCQHHSHIQYSPLNSWQGANTVGSIQDVQSEALQKHSLFHPSGCPALYCNAFCSSSSPIALRPQGDMGSCSPHSNIEPSPVARPPSHMDLCNPQPCTVCMHTPKTESDNGMMGLSPDAYRFLTEQDRQLRLLQAQIQRLLEAQSLMPCSPKTTAVEDTVQAGRQMELVSVEAQSSPGLHMRKGVSIAVSTGASLFWNAAGEDQEPDSQMKQDDTKISSEDMNFSVDINNEVTSLPGSASSLKAVDIPSFEESNIAVEEEFNQPLSVSNSSLVVRKEPDVPVFFPSGQLAESVSMCLQTGPTGGASNNSETSEEPKIEHVMQPLLHQPSDNQKIYQDLLGQVNHLLNSSSKETEQPSTKAVIISHECTRTQNVYHTKKKTHHSRLVDKDCVLNATLKQLRSLGVKIDSPTKVKKNAHNVDHASVLACISPEAVISGLNCMSFANVGMSGLSPNGVDLSMEANAIALKYLNENQLSQLSVTRSNQNNCDPFSLLHINTDRSTVGLSLISPNNMSFATKKYMKRYGLLQSSDNSEDEEEPPDNADSKSEYLLNQNLRSIPEQLGGQKEPSKNDHEIINCSNCESVGTNADTPVLRNITNEVLQTKAKQQLTEKPAFLVKNLKPSPAVNLRTGKAEFTQHPEKENEGDITIFPESLQPSETLKQMNSMNSVGTFLDVKRLRQLPKLF",binds,
"FLAG-STIL DAG (S395A) (protein, UniProt Q15468 1-1287) MEPIYPFARPQMNTRFPSSRMVPFHFPPSKCALWNPTPTGDFIYLHLSYYRNPKLVVTEKTIRLAYRHAKQNKKNSSCFLLGSLTADEDEEGVTLTVDRFDPGREVPECLEITPTASLPGDFLIPCKVHTQELCSREMIVHSVDDFSSALKALQCHICSKDSLDCGKLLSLRVHITSRESLDSVEFDLHWAAVTLANNFKCTPVKPIPIIPTALARNLSSNLNISQVQGTYKYGYLTMDETRKLLLLLESDPKVYSLPLVGIWLSGITHIYSPQVWACCLRYIFNSSVQERVFSESGNFIIVLYSMTHKEPEFYECFPCDGKIPDFRFQLLTSKETLHLFKNVEPPDKNPIRCELSAESQNAETEFFSKASKNFSIKRSSQKLSSGKMPIHDHDAGVEDEDFSPRPIPSPHPVSQKISKIQPSVPELSLVLDGNFIESNPLPTPLEMVNNENPPLINHLEHLKPLQPQLYDEKHSPEVEAGEPSLRGIPNQLNQDKPALLRHCKVRQPPAYKKGNPHTRNSIKPSSHNGPSHDIFEKLQTVSAGNVQNEEYPIRPSTLNSRQSSLAPQSQPHDFVFSPHNSGRPMELQIPTPPLPSYCSTNVCRCCQHHSHIQYSPLNSWQGANTVGSIQDVQSEALQKHSLFHPSGCPALYCNAFCSSSSPIALRPQGDMGSCSPHSNIEPSPVARPPSHMDLCNPQPCTVCMHTPKTESDNGMMGLSPDAYRFLTEQDRQLRLLQAQIQRLLEAQSLMPCSPKTTAVEDTVQAGRQMELVSVEAQSSPGLHMRKGVSIAVSTGASLFWNAAGEDQEPDSQMKQDDTKISSEDMNFSVDINNEVTSLPGSASSLKAVDIPSFEESNIAVEEEFNQPLSVSNSSLVVRKEPDVPVFFPSGQLAESVSMCLQTGPTGGASNNSETSEEPKIEHVMQPLLHQPSDNQKIYQDLLGQVNHLLNSSSKETEQPSTKAVIISHECTRTQNVYHTKKKTHHSRLVDKDCVLNATLKQLRSLGVKIDSPTKVKKNAHNVDHASVLACISPEAVISGLNCMSFANVGMSGLSPNGVDLSMEANAIALKYLNENQLSQLSVTRSNQNNCDPFSLLHINTDRSTVGLSLISPNNMSFATKKYMKRYGLLQSSDNSEDEEEPPDNADSKSEYLLNQNLRSIPEQLGGQKEPSKNDHEIINCSNCESVGTNADTPVLRNITNEVLQTKAKQQLTEKPAFLVKNLKPSPAVNLRTGKAEFTQHPEKENEGDITIFPESLQPSETLKQMNSMNSVGTFLDVKRLRQLPKLF",no binding,
"STIL with S395 replaced by aspartate (phospho-mimetic mutant) (protein, UniProt Q15468 1-1287) MEPIYPFARPQMNTRFPSSRMVPFHFPPSKCALWNPTPTGDFIYLHLSYYRNPKLVVTEKTIRLAYRHAKQNKKNSSCFLLGSLTADEDEEGVTLTVDRFDPGREVPECLEITPTASLPGDFLIPCKVHTQELCSREMIVHSVDDFSSALKALQCHICSKDSLDCGKLLSLRVHITSRESLDSVEFDLHWAAVTLANNFKCTPVKPIPIIPTALARNLSSNLNISQVQGTYKYGYLTMDETRKLLLLLESDPKVYSLPLVGIWLSGITHIYSPQVWACCLRYIFNSSVQERVFSESGNFIIVLYSMTHKEPEFYECFPCDGKIPDFRFQLLTSKETLHLFKNVEPPDKNPIRCELSAESQNAETEFFSKASKNFSIKRSSQKLSSGKMPIHDHDDGVEDEDFSPRPIPSPHPVSQKISKIQPSVPELSLVLDGNFIESNPLPTPLEMVNNENPPLINHLEHLKPLQPQLYDEKHSPEVEAGEPSLRGIPNQLNQDKPALLRHCKVRQPPAYKKGNPHTRNSIKPSSHNGPSHDIFEKLQTVSAGNVQNEEYPIRPSTLNSRQSSLAPQSQPHDFVFSPHNSGRPMELQIPTPPLPSYCSTNVCRCCQHHSHIQYSPLNSWQGANTVGSIQDVQSEALQKHSLFHPSGCPALYCNAFCSSSSPIALRPQGDMGSCSPHSNIEPSPVARPPSHMDLCNPQPCTVCMHTPKTESDNGMMGLSPDAYRFLTEQDRQLRLLQAQIQRLLEAQSLMPCSPKTTAVEDTVQAGRQMELVSVEAQSSPGLHMRKGVSIAVSTGASLFWNAAGEDQEPDSQMKQDDTKISSEDMNFSVDINNEVTSLPGSASSLKAVDIPSFEESNIAVEEEFNQPLSVSNSSLVVRKEPDVPVFFPSGQLAESVSMCLQTGPTGGASNNSETSEEPKIEHVMQPLLHQPSDNQKIYQDLLGQVNHLLNSSSKETEQPSTKAVIISHECTRTQNVYHTKKKTHHSRLVDKDCVLNATLKQLRSLGVKIDSPTKVKKNAHNVDHASVLACISPEAVISGLNCMSFANVGMSGLSPNGVDLSMEANAIALKYLNENQLSQLSVTRSNQNNCDPFSLLHINTDRSTVGLSLISPNNMSFATKKYMKRYGLLQSSDNSEDEEEPPDNADSKSEYLLNQNLRSIPEQLGGQKEPSKNDHEIINCSNCESVGTNADTPVLRNITNEVLQTKAKQQLTEKPAFLVKNLKPSPAVNLRTGKAEFTQHPEKENEGDITIFPESLQPSETLKQMNSMNSVGTFLDVKRLRQLPKLF",,no binding
